Assay results reported in PMC8784505.

Molecular target: T1, CD151 in JAM-A-deficient MDCKII cells (UniProt P48509)
T1 sequence: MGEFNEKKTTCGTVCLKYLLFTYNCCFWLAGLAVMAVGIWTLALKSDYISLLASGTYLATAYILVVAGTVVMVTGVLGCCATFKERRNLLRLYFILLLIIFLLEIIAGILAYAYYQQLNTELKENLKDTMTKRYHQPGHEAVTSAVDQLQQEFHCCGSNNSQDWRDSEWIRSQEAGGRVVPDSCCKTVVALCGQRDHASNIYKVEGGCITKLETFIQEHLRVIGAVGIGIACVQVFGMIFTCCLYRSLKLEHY
Assay: co-IP; JAM-A mutant constructs transfected into JAM-A-deficient MDCKII cells, co-IP with CD151 (Fig. 5C); who was precipitated is not stated

binding: binds
Substance: hJAM-A/Δ40 (human) (domain or fragment)

These are yes or no findings as the source states them, for the method shown. Binding seen in cells or lysates may run through a third protein. Binding calls can cover weak binding; strength is not graded here.
